Laboratory results: patent publication US20150352094A1, “USE OF FATTY ACID NIACIN CONJUGATES FOR TREATING DISEASES” (CATABASIS PHARMACEUTICALS, INC., priority 2013, published 2015)

Tested on: female APOE*3Leiden mice
Test: Plasma cholesterol and triglycerides in APOE*3Leiden mice on high cholesterol Western type diet
Format: in vivo
Settings: I-8 0.75% w/w in diet, atorvastatin 0.0015% w/w in diet
Method: The study was conducted using female APOE*3Leiden mice (groups of each n=10) and one untreated reference control group on chow (n=5). To induce dyslipidemia, a high cholesterol Western type diet containing 1% cholesterol, 15% cacao butter, 40.5% sucrose and 1% corn oil (WTD) was fed to the mice for a total experimental period of 20 weeks (of which 4 weeks are a run-in period). To prevent oxidation of the test compound (I-8), 30 mg/kg alpha-tocopherol was added to the high cholesterol diets, i.e. also in the high cholesterol diet control.
In the first 4 weeks (run-in period), a pro-atherogenic state of dyslipidemia characterized by elevated plasma cholesterol levels (about 15-20 mM) was induced in all mice by feeding them an atherogenic diet containing 1% cholesterol. The mice were then separated into a control group (no treatment) and three treatment groups: i) compound I-8, ii) atorvastatin and iii) compound I-8+atorvastatin as described below. The dyslipidemic mice were grouped on the basis of plasma cholesterol at t=0 assayed in 4 h fasting blood. Mice with low cholesterol after the run-in period were excluded so that homogenous experimental groups were obtained. A group of reference mice (n=5) remained on a chow diet during the complete study period (normolipidemic reference mice).
The doses of the test compounds were as follows: • Compound I-8: 0.75% w/w in diet. • Atorvastatin: 0.0015% w/w in diet (to achieve about 20% reduction in plasma cholesterol). • Alpha-tocopherol: 0.0030% w/w in diet
The test compounds, sufficient for approx. 3 kg of diet (i.e. 25 g of compound I-8), and alpha-tocopherol (>200 mg) were formulated before the start of the treatment period (t=0), by adding the test compounds to melted, hand warm cocoa butter and mixed for 5 min. This mix was then added to the master mix (containing the rest of the ingredients) and mixed thoroughly. The diet was frozen to −20° C. On the subsequent day, the diet was broken into small pellets (approx 5 g per piece) and freeze dried, and stored in vacuum sealed bags (approx 500 g) at −20° C. until use. […]

CC(C)c1c(C(=O)Nc2ccccc2)c(-c2ccccc2)c(-c2ccc(F)cc2)n1CC[C@@H](O)C[C@@H](O)CC(=O)O [atorvastatin, reference compound]
plasma cholesterol (after 4 weeks of treatment): Comparable level of cholesterol reduction | plasma triglycerides (after 4 weeks of treatment): failed to show a statistically significant change | plasma cholesterol (t=2 weeks of treatment): statistically significant reduction
